For 1 substance, binding results are on record in article PMC9316600.

By UniProt entry, the sequences of proteins in these tests, tags left out. Where a name states a change or a piece, a line headed by the entry shows the natural chain unless it says otherwise.
UniProt C8KIP4: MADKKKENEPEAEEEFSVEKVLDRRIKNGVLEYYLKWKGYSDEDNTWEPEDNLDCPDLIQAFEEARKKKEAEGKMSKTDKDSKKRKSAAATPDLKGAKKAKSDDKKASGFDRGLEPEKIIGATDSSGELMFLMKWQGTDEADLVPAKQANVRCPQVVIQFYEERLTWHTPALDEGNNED
UniProt Q1HPP1: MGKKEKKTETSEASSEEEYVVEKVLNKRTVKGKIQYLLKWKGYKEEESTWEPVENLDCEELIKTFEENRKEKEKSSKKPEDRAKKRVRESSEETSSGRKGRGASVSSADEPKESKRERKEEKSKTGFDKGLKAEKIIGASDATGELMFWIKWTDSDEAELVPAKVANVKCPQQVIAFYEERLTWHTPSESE

No constants are given. Whether binding was seen depends on the method and setting. Binding seen in cells or lysates may run through a third protein. Binding calls can cover weak binding; strength is not graded here.

In the test the target is HA-BmHP1b (Bombyx mori) (UniProt C8KIP4). Kind of test: co-IP; Flag- and HA-tagged proteins co-expressed in BmN4 cells, lysed 5 days after transfection (10 mM Tris-HCl pH 7.5, 150 mM NaCl, 5 mM EDTA, 1% Nonidet P-40); anti-Flag (or -HA) monoclonal antibody-coupled G protein beads, 4 °C overnight; western blot with anti-Flag and anti-HA.

Turning to Flag-BmHP1a (from UniProt Q1HPP1), the binding entry is “binds”.
